Some results were stated once for a whole list of compounds, not compound by compound. For at least one compound, name, drawing or mass did not settle the structure.
Test: Intracolonic absorption of prodrugs of GABAB agonists in rats
Details: solution directly into colon, 10 mg baclofen equivalents per kg

Structure (SMILES): CC(=O)OC(OC(=O)NC[C@H](CC(=O)[O-])c1ccc(Cl)cc1)C(C)C.[Na+] (stereo partly drawn) [sodium 4-[(1-acetoxyisobutoxy)carbonylamino]-(3R)-(4-chlorophenyl)-butanoate]
- area under the baclofen plasma concentration vs. time curve (AUC) relative to colonic administration of (R)-baclofen itself: > 2 fold
- maximum plasma concentration of (R)-baclofen (Cmax) relative to colonic administration of (R)-baclofen itself: > 2 fold

Structure (SMILES): CCCC(=O)OC(C)OC(=O)NC[C@H](CC(=O)[O-])c1ccc(Cl)cc1.[Na+] (stereo partly drawn) [sodium 4-[(1-butanoyloxyethoxy)carbonylamino]-(3R)-(4-chlorophenyl)-butanoate]
- area under the baclofen plasma concentration vs. time curve (AUC) relative to colonic administration of (R)-baclofen itself: > 2 fold
- maximum plasma concentration of (R)-baclofen (Cmax) relative to colonic administration of (R)-baclofen itself: > 2 fold

Structure (SMILES): CC(OC(=O)NC[C@H](CC(=O)[O-])c1ccc(Cl)cc1)OC(=O)C(C)C.[Na+] (stereo partly drawn) [sodium 4-[(1-isobutanoyloxyethoxy)carbonylamino]-(3R)-(4-chlorophenyl)-butanoate]
- area under the baclofen plasma concentration vs. time curve (AUC) relative to colonic administration of (R)-baclofen itself: > 2 fold
- maximum plasma concentration of (R)-baclofen (Cmax) relative to colonic administration of (R)-baclofen itself: > 2 fold

Source: US20090118365A1, “Use of Prodrugs of GABA B Agonists for Treating Neuropathic and Musculoskeletal Pain” (XenoPort, Inc, priority 2007, published 2009)
